These are yes or no findings as the source states them, for the method shown. Some binding calls cover weakened binding; strength is not graded here.
Target: T1, CbpM (residues 2-101), species not named for the experiment (not stated (E. coli K-12 or K. pneumoniae cloned)) (UniProt P63264)
T1 sequence: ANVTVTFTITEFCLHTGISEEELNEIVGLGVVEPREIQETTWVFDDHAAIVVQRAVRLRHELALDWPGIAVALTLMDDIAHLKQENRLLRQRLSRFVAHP
Assay: SPR; CbpM immobilised, DnaJ^Jdom variants injected (50 µL/min, 120 s); ProteOn XPR36, 25°C, 50 mM sodium phosphate pH 7.4, 100 mM NaCl, 1 mM DTT, 0.005% Tween 20; steady-state equilibrium fit (one site); both purified

In the case of “Chimeric DnaJ^Jdom(36-42): DnaJ J-domain with the loop between helices α2 and α3 replaced by that of CbpA^Jdom (from UniProt P08622 2-79) (domain or fragment)”, the binding is reported as “binds weakly”.

“DnaJ^Jdom triple mutant K26R/M30R/R36V (from UniProt P08622 2-79) (domain or fragment)” was tested, and the binding was “binds weakly”.

With “Wild-type J-domain of E. coli DnaJ (DnaJ^Jdom, residues 2-79) (from UniProt P08622 2-79) (domain or fragment)” the binding was “no binding”.

Reference: publication PMC4063869, “Structure of CbpA J-Domain Bound to the Regulatory Protein CbpM Explains Its Specificity and Suggests Evolutionary Link between CbpM and Transcriptional Regulators” (PLoS ONE, 2014)
